Reference: patent EP3045469A1 (priority 2015, dated 2016)
HELM strings list residues between dots; [ac] is acetyl, [am] amide, other brackets name non-standard units.

Experiment: peptide synthesis
Settings: whole synthesis, sulfate

Substance	final HPLC purity [%]	final HPLC purity (run 1) [%]	final HPLC purity (run 2) [%]
PEPTIDE1{[OA].T.[dS].[Dab].[Dab].[dF].L.[Dab].[Dab].T}$PEPTIDE1,PEPTIDE1,4:R3-10:R2$$$V2.0	97.3		
PEPTIDE1{[OA].[Dab].T.[dT].[Dab].[Dab].[dF].L.[Abu].[Dab].T}$PEPTIDE1,PEPTIDE1,5:R3-11:R2$$$V2.0		98.8	98.4
